Here are results for 33 targets from the supplement of paper PMC10849652.

The chains behind the UniProt entries cited, without tags or fusion partners. Where a name states a change or a piece, a line headed by the entry shows the natural chain unless it says otherwise.
UniProt Q9NYP7: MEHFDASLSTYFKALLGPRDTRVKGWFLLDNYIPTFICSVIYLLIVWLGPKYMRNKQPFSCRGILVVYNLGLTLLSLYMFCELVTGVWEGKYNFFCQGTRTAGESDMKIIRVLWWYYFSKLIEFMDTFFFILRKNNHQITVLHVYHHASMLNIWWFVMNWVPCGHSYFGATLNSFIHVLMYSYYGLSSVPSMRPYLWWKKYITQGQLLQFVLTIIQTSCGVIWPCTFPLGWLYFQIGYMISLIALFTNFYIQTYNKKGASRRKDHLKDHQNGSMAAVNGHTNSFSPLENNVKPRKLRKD
UniProt Q9H6S3: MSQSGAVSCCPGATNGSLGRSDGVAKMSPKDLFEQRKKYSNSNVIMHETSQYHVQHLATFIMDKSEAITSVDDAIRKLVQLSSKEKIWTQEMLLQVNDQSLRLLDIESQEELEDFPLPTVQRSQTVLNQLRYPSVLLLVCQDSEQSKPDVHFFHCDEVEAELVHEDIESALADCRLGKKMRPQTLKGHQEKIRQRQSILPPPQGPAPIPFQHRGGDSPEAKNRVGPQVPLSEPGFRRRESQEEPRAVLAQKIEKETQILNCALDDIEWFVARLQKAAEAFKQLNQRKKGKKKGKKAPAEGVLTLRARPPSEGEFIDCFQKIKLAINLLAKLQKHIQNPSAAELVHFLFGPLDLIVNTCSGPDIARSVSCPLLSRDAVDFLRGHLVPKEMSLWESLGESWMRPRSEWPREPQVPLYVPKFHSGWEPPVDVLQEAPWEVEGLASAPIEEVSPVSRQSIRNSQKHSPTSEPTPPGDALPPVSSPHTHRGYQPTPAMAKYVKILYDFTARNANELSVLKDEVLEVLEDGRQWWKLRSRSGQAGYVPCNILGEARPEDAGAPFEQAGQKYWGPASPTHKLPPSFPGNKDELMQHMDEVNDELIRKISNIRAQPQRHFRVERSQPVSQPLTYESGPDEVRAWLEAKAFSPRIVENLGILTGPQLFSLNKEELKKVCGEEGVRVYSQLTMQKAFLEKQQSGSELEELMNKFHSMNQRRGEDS
UniProt Q9Y6I3: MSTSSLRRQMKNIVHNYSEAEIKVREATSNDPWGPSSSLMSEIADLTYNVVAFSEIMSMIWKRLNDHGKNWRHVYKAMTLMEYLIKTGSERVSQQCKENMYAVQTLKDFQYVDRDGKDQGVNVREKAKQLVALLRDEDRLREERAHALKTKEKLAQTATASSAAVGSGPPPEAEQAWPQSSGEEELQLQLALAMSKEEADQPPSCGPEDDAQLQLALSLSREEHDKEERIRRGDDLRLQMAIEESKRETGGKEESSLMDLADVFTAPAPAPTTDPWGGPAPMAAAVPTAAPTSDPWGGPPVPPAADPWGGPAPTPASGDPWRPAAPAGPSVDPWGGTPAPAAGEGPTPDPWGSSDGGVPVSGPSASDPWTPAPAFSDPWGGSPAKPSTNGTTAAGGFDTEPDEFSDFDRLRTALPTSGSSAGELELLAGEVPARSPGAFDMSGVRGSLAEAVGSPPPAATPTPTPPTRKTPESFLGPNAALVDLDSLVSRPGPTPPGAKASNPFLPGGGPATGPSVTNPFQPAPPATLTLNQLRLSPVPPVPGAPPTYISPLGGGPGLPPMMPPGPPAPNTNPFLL
UniProt O75354: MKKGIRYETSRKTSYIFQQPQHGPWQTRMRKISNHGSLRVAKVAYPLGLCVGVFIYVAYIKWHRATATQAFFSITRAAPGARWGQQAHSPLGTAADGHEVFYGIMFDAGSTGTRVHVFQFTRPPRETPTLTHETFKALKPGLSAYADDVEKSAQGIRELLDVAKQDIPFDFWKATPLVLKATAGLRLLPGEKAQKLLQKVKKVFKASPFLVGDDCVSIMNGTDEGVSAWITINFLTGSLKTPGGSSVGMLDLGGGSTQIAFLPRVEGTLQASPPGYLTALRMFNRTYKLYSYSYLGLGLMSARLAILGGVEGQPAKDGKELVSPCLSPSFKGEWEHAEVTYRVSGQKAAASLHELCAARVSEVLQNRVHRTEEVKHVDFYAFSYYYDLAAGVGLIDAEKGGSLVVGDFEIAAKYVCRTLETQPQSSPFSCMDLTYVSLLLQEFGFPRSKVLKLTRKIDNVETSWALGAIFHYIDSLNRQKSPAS
UniProt Q6P179: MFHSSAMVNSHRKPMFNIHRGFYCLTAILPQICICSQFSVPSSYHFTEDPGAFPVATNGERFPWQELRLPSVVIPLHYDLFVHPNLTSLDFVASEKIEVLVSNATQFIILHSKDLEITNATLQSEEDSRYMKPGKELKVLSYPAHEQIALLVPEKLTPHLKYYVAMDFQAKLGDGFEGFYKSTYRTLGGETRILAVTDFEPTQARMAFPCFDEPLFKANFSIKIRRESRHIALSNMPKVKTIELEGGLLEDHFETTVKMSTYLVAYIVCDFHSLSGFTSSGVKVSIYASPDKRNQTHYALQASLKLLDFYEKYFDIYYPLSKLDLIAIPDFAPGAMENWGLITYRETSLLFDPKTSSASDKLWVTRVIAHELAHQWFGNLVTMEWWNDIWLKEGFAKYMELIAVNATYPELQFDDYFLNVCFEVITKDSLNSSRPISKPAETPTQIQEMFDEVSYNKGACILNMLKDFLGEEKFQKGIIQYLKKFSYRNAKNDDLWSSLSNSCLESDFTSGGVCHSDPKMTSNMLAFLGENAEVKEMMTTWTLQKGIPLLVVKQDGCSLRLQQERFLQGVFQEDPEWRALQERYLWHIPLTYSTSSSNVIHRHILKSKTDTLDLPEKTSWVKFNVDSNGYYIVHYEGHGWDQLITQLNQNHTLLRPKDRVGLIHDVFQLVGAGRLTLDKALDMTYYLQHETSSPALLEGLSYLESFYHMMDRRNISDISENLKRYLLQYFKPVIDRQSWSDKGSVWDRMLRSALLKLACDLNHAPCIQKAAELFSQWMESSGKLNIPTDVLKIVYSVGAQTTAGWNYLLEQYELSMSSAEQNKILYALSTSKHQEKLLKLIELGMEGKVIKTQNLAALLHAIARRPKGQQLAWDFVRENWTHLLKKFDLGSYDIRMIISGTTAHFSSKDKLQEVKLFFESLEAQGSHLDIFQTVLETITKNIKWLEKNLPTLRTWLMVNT
UniProt P11171, whole entry, looked up: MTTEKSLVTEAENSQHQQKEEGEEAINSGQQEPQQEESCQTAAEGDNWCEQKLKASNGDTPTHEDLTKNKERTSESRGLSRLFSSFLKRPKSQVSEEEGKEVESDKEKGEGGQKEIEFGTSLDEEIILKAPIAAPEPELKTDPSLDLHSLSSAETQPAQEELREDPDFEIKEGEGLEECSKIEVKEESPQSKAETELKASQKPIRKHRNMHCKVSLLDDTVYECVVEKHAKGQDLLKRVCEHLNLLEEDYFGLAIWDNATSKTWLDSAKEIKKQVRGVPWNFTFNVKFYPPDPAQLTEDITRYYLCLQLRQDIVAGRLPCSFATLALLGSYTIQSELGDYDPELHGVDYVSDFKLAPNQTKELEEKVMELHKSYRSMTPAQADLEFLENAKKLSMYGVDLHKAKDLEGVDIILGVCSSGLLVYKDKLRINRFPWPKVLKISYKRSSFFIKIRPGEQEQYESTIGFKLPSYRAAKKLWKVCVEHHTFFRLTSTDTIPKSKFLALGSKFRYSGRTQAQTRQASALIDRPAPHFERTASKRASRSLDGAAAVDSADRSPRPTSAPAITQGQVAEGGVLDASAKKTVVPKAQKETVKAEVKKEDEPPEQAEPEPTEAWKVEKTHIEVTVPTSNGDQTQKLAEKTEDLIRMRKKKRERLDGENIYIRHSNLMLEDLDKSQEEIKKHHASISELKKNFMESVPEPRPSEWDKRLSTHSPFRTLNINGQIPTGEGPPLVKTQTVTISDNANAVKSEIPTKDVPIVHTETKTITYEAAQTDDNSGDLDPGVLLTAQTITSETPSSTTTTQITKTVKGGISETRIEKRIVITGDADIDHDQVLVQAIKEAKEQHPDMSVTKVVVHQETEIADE
UniProt Q05BV3: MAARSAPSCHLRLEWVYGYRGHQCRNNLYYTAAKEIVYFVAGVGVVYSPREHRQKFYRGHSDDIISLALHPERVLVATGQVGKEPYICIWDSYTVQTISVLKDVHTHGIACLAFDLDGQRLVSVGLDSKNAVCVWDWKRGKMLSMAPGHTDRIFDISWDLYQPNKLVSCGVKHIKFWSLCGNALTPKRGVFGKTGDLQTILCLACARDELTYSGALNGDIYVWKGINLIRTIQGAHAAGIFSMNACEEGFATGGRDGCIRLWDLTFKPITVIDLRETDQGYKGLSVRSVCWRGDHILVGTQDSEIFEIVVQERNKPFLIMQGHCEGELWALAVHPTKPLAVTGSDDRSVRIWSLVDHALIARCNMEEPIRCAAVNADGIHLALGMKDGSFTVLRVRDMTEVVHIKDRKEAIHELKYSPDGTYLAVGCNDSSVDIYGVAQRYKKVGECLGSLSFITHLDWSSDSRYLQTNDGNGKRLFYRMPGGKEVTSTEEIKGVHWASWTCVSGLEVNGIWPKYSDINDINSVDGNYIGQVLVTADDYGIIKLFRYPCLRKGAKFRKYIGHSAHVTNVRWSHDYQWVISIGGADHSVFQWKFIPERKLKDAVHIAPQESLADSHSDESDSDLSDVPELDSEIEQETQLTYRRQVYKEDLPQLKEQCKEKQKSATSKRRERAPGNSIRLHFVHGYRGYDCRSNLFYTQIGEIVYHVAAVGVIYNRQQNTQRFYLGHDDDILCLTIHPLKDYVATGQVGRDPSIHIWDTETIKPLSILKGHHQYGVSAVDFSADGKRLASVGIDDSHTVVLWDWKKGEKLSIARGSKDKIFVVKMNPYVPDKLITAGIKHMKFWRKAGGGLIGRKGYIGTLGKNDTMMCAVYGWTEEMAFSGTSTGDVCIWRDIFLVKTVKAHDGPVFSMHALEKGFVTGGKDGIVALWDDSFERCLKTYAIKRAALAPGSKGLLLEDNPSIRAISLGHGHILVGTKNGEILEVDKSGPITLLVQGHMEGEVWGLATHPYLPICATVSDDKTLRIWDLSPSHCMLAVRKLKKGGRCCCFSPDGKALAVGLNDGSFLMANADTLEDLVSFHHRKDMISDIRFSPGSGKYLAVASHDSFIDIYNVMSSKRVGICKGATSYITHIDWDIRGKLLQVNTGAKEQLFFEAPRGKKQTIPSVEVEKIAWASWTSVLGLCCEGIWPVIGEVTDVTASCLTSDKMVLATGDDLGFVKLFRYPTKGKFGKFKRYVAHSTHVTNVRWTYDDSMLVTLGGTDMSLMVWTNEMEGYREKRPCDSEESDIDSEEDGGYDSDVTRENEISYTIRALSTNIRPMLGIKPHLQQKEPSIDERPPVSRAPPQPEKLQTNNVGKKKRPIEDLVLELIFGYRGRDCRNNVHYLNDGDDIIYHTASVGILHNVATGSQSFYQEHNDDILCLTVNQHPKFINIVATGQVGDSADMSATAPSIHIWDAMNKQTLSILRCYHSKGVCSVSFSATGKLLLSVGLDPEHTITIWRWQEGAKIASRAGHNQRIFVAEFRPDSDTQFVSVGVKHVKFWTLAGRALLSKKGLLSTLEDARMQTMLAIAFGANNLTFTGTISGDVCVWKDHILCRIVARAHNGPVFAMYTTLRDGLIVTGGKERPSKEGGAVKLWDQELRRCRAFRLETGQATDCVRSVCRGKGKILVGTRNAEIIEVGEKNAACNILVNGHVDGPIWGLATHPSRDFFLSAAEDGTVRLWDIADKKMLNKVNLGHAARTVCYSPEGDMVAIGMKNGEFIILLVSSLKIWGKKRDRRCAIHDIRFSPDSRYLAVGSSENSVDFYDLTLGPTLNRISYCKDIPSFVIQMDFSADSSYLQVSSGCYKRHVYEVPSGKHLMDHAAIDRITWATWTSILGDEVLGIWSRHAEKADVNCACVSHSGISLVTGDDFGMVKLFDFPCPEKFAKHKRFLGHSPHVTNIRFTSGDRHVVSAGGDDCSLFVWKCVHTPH
UniProt Q9HCM4: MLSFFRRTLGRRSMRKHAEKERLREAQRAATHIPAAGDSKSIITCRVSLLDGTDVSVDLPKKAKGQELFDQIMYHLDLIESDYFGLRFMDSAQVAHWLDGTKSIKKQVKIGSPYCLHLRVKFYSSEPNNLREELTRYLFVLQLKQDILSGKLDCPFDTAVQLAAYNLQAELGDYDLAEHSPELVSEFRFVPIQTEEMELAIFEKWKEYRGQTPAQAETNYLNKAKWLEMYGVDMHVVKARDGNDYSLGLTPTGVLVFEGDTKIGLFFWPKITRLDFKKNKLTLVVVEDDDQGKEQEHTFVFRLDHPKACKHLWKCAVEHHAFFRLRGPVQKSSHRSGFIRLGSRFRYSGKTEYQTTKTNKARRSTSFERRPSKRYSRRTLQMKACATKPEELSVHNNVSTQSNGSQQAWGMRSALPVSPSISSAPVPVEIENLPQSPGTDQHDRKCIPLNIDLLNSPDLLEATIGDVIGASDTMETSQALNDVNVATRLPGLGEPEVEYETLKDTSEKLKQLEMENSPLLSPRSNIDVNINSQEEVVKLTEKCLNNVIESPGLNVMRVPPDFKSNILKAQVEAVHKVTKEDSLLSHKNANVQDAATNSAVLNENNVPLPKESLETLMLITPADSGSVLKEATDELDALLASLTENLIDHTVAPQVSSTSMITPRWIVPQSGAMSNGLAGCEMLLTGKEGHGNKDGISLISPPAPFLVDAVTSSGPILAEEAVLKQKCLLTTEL

Some of the results follow.

Compound in one experiment: NCC(=O)Nc1ccc(-n2nc(C(F)(F)F)cc2-c2ccc3c(ccc4ccccc43)c2)cc1
Description: log2 fold change, soluble protein after heating vs DMSO (PISA); higher = thermal stabilisation; K562 lysate, 10 uM; active = over 0.2 and 3.5 SD of the protein, either way, in both replicates (recomputed). Summed up: (§1)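 Dounce homogenisation of K562 pellets in PBS pH 7.4 with 1 mM MgCl2 produced a crude extract, used at 1 mg/mL protein. Exposure to 10 μM compound lasted 30 min, and aliquots were then heated for 3 min across 48°C-58°C, pooled and brought to 0.5% NP-40 at 4°C. The supernatant after 21,000xg for 90 min was quantified by TMTpro 16plex LC-MS/MS with channel sums equalised. Duplicate values are given as log-two fold change in thermal stability relative to solvent controls.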
For the target EPB41, A0A2R8Y783, the log2 fold change is inactive: -0.071.
On to ELK1 (UniProt P19419), for which the log2 fold change is inactive: 0.
EME1 isoform 2 (UniProt Q96AY2): the log2 fold change is inactive: 0.133.
As for ENTR1 (UniProt Q96C92), the log2 fold change was inactive: -0.156.
Same read-out and setting: the same measure for ELAC1 (UniProt Q9H777): inactive: 0.052; for EIF3J isoform 2 (UniProt O75822): inactive: 0.051; for EPHB6 (UniProt O15197): inactive: -0.271.
In the case of ENTPD7 (UniProt Q9NQZ7), the log2 fold change was inactive: 0.015.
On to EPS15L1 (UniProt M0QY01), for which the log2 fold change was inactive: 0.031.
As to ERCC6 (UniProt Q03468), the log2 fold change is inactive: -0.067.
For the target EPC2 (UniProt Q52LR7), the log2 fold change was inactive: 0.24.
As to ELOVL5 isoform 2 (UniProt Q9NYP7), the log2 fold change is inactive: -0.016.
Regarding EPS8L1 (UniProt Q8TE68), the log2 fold change was inactive: 0.037.
In the case of EIF4A1 (UniProt J3KS25), the log2 fold change is inactive: -0.055.

Compound in the next experiment: O=C(CCCCCCC(=O)Nc1ccccc1)NO [vorinostat]
Described as above. Summed up:
as §1
Regarding ELOVL7 (UniProt A1L3X0), the log2 fold change was inactive: 0.202.
With EPS8L2 (UniProt Q9H6S3), the log2 fold change was inactive: 0.017.
For the target ERCC6 (UniProt P0DP91), the log2 fold change is inactive: -0.153.
Consider EPN1 isoform 3 (UniProt Q9Y6I3), for which the log2 fold change is inactive: 0.36.
As to ENTPD6 (UniProt O75354), the log2 fold change was inactive: 0.066.
For ERAP2 (UniProt Q6P179), the log2 fold change was inactive: 0.163.
EMC1 (UniProt H7C5A2): the log2 fold change is inactive: 0.241.
Same read-out and setting: the same measure for EPB41 isoform 4 (UniProt P11171): inactive: 0.071; for EML5 isoform 5 (UniProt Q05BV3): inactive: -0.041.
Same read-out and setting: the same measure for EPG5 (UniProt Q9HCE0): inactive: -0.138; for ELOF1 (UniProt P60002): inactive: 0.497.
Same read-out and setting: the same measure for EIF2AK3 (UniProt Q9NZJ5): inactive: -0.142; for EIF3B (UniProt C9JQN7): inactive: 0.103; for EPS15L1 (UniProt M0QY01): inactive: 0.059.
For EIF4EBP3 (UniProt O60516), the log2 fold change was inactive: -0.024.
For the target ERCC6 (UniProt Q03468), the log2 fold change was inactive: 0.025.
For EPB41L5 (UniProt Q9HCM4), the log2 fold change was inactive: -0.465.

Compound in a further experiment: O=C(O)c1ccc2c(c1)nc(Nc1cccc(Cl)c1)c1ccncc12 [silmitasertib]
Described as above. Summed up:
as §1
With ELOVL7 (UniProt A1L3X0), the log2 fold change was inactive: -0.078.
Consider EPS8L2 (UniProt Q9H6S3), for which the log2 fold change is inactive: -0.019.
The same measure, in the same setting: the same measure for ERCC6 (UniProt P0DP91): inactive: -0.227.
Take EPN1 isoform 3 (UniProt Q9Y6I3): the log2 fold change was inactive: -0.157.
As to ENTPD6 (UniProt O75354), the log2 fold change is inactive: -0.042.
Regarding ERAP2 (UniProt Q6P179), the log2 fold change is inactive: -0.007.
On to EMC1 (UniProt H7C5A2), for which the log2 fold change is inactive: 0.059.
With EPB41 isoform 4 (UniProt P11171), the log2 fold change is inactive: 0.101.
As for EML5 isoform 5 (UniProt Q05BV3), the log2 fold change was inactive: -0.011.
In the case of EPG5 (UniProt Q9HCE0), the log2 fold change was inactive: -0.131.
As for ELOF1 (UniProt P60002), the log2 fold change is inactive: 0.07.
The same measure, in the same setting: the same measure for EIF2AK3 (UniProt Q9NZJ5): inactive: 0.241.
As for EIF3B (UniProt C9JQN7), the log2 fold change was inactive: -0.04.
Take EPS15L1 (UniProt M0QY01): the log2 fold change is inactive: -0.028.
On the same count and under the same terms, to EIF4EBP3 (UniProt O60516) belongs inactive: 0.064.
In the case of ERCC6 (UniProt Q03468), the log2 fold change is inactive: -0.019.
The same measure, in the same setting: the same measure for EPB41L5 (UniProt Q9HCM4): inactive: 0.237.

Compound in the next experiment: O=C1NC(=O)C(c2cnc3ccccn23)=C1c1cn2c3c(cc(F)cc13)CN(C(=O)N1CCCCC1)CC2
The experiment is described as above. Put shortly: as §1
Consider EPS8L2 (UniProt Q9H6S3), for which the log2 fold change was inactive: 0.026.
As for EPC1 (UniProt Q9H2F5), the log2 fold change was inactive: 0.171.
Turning to EPN1 isoform 3 (UniProt Q9Y6I3), the log2 fold change was inactive: -0.083.
Consider EME1 isoform 2 (UniProt Q96AY2), for which the log2 fold change is inactive: -0.021.
Same read-out and setting: the same measure for ENTR1 (UniProt Q96C92): inactive: 0.036.
Still for that read-out and setting: the same measure for ENTPD6 (UniProt O75354): inactive: -0.142; for ERAP2 (UniProt Q6P179): inactive: 0.1.
For EMC1 (UniProt H7C5A2), the log2 fold change is inactive: 0.145.
Turning to EPB41 isoform 4 (UniProt P11171), the log2 fold change was inactive: -0.085.
On the same count and under the same terms, to EIF4B (UniProt F8VP89) belongs inactive: 0.274; to EMC1 isoform 3 (UniProt Q8N766), inactive: 0.111; to EML5 isoform 5 (UniProt Q05BV3), inactive: -0.057.
In the case of EPG5 (UniProt Q9HCE0), the log2 fold change is inactive: -0.037.
Consider ELOF1 (UniProt P60002), for which the log2 fold change is inactive: 0.157.
Consider ERCC8 (UniProt Q13216), for which the log2 fold change was inactive: -0.039.
As for EIF3B (UniProt C9JQN7), the log2 fold change was inactive: 0.065.
For the target EPC2 (UniProt Q52LR7), the log2 fold change is inactive: -0.004.
On to ELOVL5 isoform 2 (UniProt Q9NYP7), for which the log2 fold change is inactive: -0.037.
On to EPS8L1 (UniProt Q8TE68), for which the log2 fold change was inactive: 0.243.
Regarding EPB41L5 (UniProt Q9HCM4), the log2 fold change was inactive: 0.013.
